# Reference: patent US6924101B2, “Methods for identifying anti-microbial agents” (priority 1997, dated 2005)
# Some entries share one result that the patent states for a list of compounds.
# B1: pJB53: pLEX5BA with a 714 bp PstI/HindIII fragment of viaA in antisense orientation; expresses antisense RNA (SEQ ID NO: 4) (nucleic acid)
# antisense: CUGCAGGCUGAGGUGUUGCCCUUACAAAUGCAACAACGACAUGGAUUACAACACCCUCAUAAACAAAGGGCAAUCACCUGAUCUAAGCUCUUACCUAUGACAGUGAUAGGUUAUGCCUUUUACUCGACUUUUGCACUGACUGAAAAGGACAAAUUAAUGUUAAAAAAGAUACUUUUACUGGCUCUGCUUCCUGCAAUCGCCUUCGCAGAGGAACUUCCUGCUCCAGUAAAAGCGAUUGAAAAACAGGGCAUUACAAUCAUCAAAACAUUCGAUGCCCCCGGAGGAAUGAAAGGUUAUCUCGGAAAGUAUCAGGAUAUGGGCGUCACCAUCUACCUGACUCCAGAUGGUAAGCACGCUAUCUCUGGUUACAUGUACAACGAGAAAGGUGAAAACCUGAGUAACACACUUAUCGAAAAAGAAAUUUACGCACCAGCCGGACGCGAAAUGUGGCAACGGAUGGAACAAUCCCACUGGCUCCUCGACGGUAAAAAAGAUGCGCCGGUCAUUGUCUACGUCUUCGCCGAUCCGUUCUGCCCAUAUUGUAAACAGUUCUGGCAGCAGGCGCGCCCGUGGGUAGAUUCUGGCAAAGUGCAAUUAAGAACAUUGUUGGUUGGGGUUAUCAAGCCAGAAAGCCCGGCGACAGCAGCGGCAAUUCUUGCCUCCAAAGAUCCCGCAAAAACCUGGCAACAAUAUGAAGCCUCUGGUGGCAAGCUU
# modifications: expressed from plasmid pLEX5BA; Escherichia coli viaA
# Tested on: E. coli DH5α
# Assay: Effect of different concentrations of inducer IPTG on viability (FIG. 9)
# Format: cell-based
# Conditions: 500 μm IPTG
# Description: FIG. 9 is a graph showing the effect of varying concentrations of inducer on the viability of DH5α containing pJB37 (panel A) or pJB53 (panel B).
# Effect of different concentrations of transcriptional inducer. Experiments were carried out to determine the effect of different concentrations of the inducer IPTG on bacterial growth and viability with the two clones where antisense RNA is bacteriocidal. Overnight cultures were diluted 1:100 into LB media containing 0, 10, 100 500 or 1000 micro molar (μM) IPTG. At the time of induction and every 2 hours thereafter, aliquots were plated on LB/ampicillin agar to determine CFUs/ml.
molecule,measurement,value
B1,time to cell death,≤ 2 h
